PubChem BioAssay AID1259425 – University of Nebraska Medical Center, 2018

- Purpose: 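Compare each knockdown with KSR1 silencing using changes in marker transcripts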 (primary screen)
- System: HCT116 human colon cancer cells
- Knock-down reagent: siRNA pool against human genes, 50 nM siRNA
- Read-out: 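After 50 nM siRNA pool, branched-DNA assay measures six marker transcripts per well, minus blank, normalised to the geometric mean of two housekeeping transcripts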
- Reading the numbers: BNIP3L mRNA: higher = more BNIP3L transcript after knockdown; NDRG1 mRNA: higher = more NDRG1 transcript after knockdown; BNIP3 mRNA: higher = more BNIP3 transcript after knockdown; ALDOC mRNA: higher = more ALDOC transcript after knockdown
This is one part, drawn at random, of about 14,000 deposited reagents. Some reagents were tested in more than one well and are listed for each. Not all columns of the deposit are shown. The record does not give: the time to read-out.

The opening 5 entries as a preview:
target | BNIP3L mRNA, set 1 | NDRG1 mRNA, set 1 | BNIP3 mRNA, set 1 | ALDOC mRNA, set 1
HPGD (15-hydroxyprostaglandin dehydrogenase) | 0.183 | 0.342 | 0.495 | 0.0531
PRPF38A (pre-mRNA processing factor 38A) | 0.327 | 0.545 | 0.341 | 0.0906
PPP1R13L (protein phosphatase 1 regulatory subunit 13 like) | 0.173 | 0.128 | 0.172 | 0.0218
KCNV2 | 0.118 | 0.21 | 0.273 | 0.0321
H2AC20 (H2A clustered histone 20) | 0.142 | 0.133 | 0.293 | 0.0241

Main list, from the start:
target | BNIP3L mRNA, set 1 | NDRG1 mRNA, set 1 | BNIP3 mRNA, set 1 | ALDOC mRNA, set 1
HPGD (15-hydroxyprostaglandin dehydrogenase) | 0.183 | 0.342 | 0.495 | 0.0531
PRPF38A (pre-mRNA processing factor 38A) | 0.327 | 0.545 | 0.341 | 0.0906
PPP1R13L (protein phosphatase 1 regulatory subunit 13 like) | 0.173 | 0.128 | 0.172 | 0.0218
KCNV2 | 0.118 | 0.21 | 0.273 | 0.0321
H2AC20 (H2A clustered histone 20) | 0.142 | 0.133 | 0.293 | 0.0241
RAB27A (RAB27A, member RAS oncogene family) | 0.073 | 0.122 | 0.291 | 0.0275
RGS3 (regulator of G protein signaling 3) | 0.192 | 0.513 | 0.278 | 0.109
LASP1 (LIM and SH3 protein 1) | 0.062 | 0.559 | 0.334 | 0.0244
LRP3 (LDL receptor related protein 3) | 0.108 | 0.19 | 0.274 | 0.024
MED20 (mediator complex subunit 20) | 0.227 | 0.137 | 0.367 | 0.0557
ZNHIT6 (zinc finger HIT-type containing 6) | 0.0901 | 0.255 | 0.332 | 0.0116
PI4K2B (phosphatidylinositol 4-kinase type 2 beta) | 0.0787 | 0.244 | 0.371 | 0.00613
DYM (dymeclin) | 0.133 | 0.114 | 0.252 | 0.0198
RPL10A (ribosomal protein L10a) | 0.541 | 1.26 | 0.509 | 0.0441
GPR119 (G protein-coupled receptor 119) | 0.168 | 0.325 | 0.644 | 0.0519
GPR119 (G protein-coupled receptor 119) | 0.139 | 0.25 | 0.323 | 0.0208
TMEM132A (transmembrane protein 132A) | 0.0702 | 0.685 | 0.352 | 0.00932
ACTC1 (actin alpha cardiac muscle 1) | 0.118 | 0.18 | 0.365 | 0.0519
SERPINF2 (serpin family F member 2) | 0.039 | 0.179 | 0.338 | 0.0106
CCL2 (C-C motif chemokine ligand 2) | 0.0597 | 0.627 | 0.483 | 0.0137
CCL2 (C-C motif chemokine ligand 2) | 0.135 | 0.583 | 0.325 | 0.0352
RTN4R (reticulon 4 receptor) | 0.033 | 0.329 | 0.246 | 0.0111
RAC1 (Rac family small GTPase 1) | 0.199 | 0.127 | 0.443 | 0.00103
VNN1 (vanin 1) | 0.0989 | 0.221 | 0.267 | 0.0378
SLC9A6 | 0.14 | 0.346 | 0.184 | 0.0361
KCNQ1DN (KCNQ1 downstream neighbor) | 0.115 | 0.735 | 0.3 | 0.00777
PPP1R15B (protein phosphatase 1 regulatory subunit 15B) | 0.0711 | 0.201 | 0.358 | 0.0133
FAF2 (Fas associated factor family member 2) | 0.0874 | 0.126 | 0.347 | 0.0152
SPAG16 (sperm associated antigen 16) | 0.0948 | 0.168 | 0.335 | 0.0176
CEP89 (centrosomal protein 89) | 0.225 | 0.285 | 0.328 | 0.0397
SNF8 (SNF8 subunit of ESCRT-II) | 0.114 | 0.104 | 0.281 | 0.0149
COX7C (cytochrome c oxidase subunit 7C) | 0.117 | 0.327 | 0.371 | 0.0416
PNMA1 (PNMA family member 1) | 0.101 | 0.109 | 0.256 | 0.0166
PALD1 (phosphatase domain containing paladin 1) | 0.07 | 0.36 | 0.32 | 0.00579
FCRL1 (Fc receptor like 1) | 0.0905 | 0.122 | 0.303 | 0.0131
NFKBIE (NFKB inhibitor epsilon) | 0.0985 | 0.533 | 0.143 | 0.0183
ADAM7 (ADAM metallopeptidase domain 7) | 0.102 | 0.159 | 0.441 | 0.0216
POP1 (POP1 ribonuclease P/MRP subunit) | 0.166 | 0.682 | 0.3 | 0.0452
RCAN2 (regulator of calcineurin 2) | 0.148 | 0.71 | 0.342 | 0.0768
UBE2S (ubiquitin conjugating enzyme E2 S) | 0.149 | 0.261 | 0.361 | 0.0262
MED9 (mediator complex subunit 9) | 0.104 | 0.145 | 0.356 | 0.0219
MAP9 (microtubule associated protein 9) | 0.0991 | 0.317 | 0.401 | 0.0811
CCDC7 (coiled-coil domain containing 7) | 0.135 | 0.286 | 0.393 | 0.0585
CAMLG (calcium modulating ligand) | 0.174 | 0.0858 | 0.328 | 0.0457
SYTL2 (synaptotagmin like 2) | 0.0429 | 0.138 | 0.264 | 0.0469
TPCN1 (two pore segment channel 1) | 0.161 | 0.112 | 0.291 | 0.0244
KCNE5 | 0.0548 | 0.208 | 0.419 | 0.0216
HMGCL (3-hydroxy-3-methylglutaryl-CoA lyase) | 0.111 | 0.23 | 0.209 | 0.0185
STEAP3 (STEAP3 metalloreductase) | 0.0875 | 0.125 | 0.312 | 0.0172
OR7A17 (olfactory receptor family 7 subfamily A member 17) | 0.188 | 0.337 | 0.367 | 0.0682
